No constants are given. Whether binding was seen depends on the method and setting. For some of these results: Binding seen in cells or lysates may run through a third protein. Some results given as binding are weak or reduced against the parent protein; the word gives no strength. Where a sequence is shown, tags or fusion partners need not be part of it.
T1: mNADE with Myc-His tag expressed in 293T cells (mouse) (UniProt Q9WTZ9)
T1 sequence (looked up): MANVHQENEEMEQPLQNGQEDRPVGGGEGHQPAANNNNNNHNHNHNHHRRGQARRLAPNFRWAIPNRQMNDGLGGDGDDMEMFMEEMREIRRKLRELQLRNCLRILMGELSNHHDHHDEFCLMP

The chains behind the UniProt entries cited, without tags or fusion partners. Residues count along the entry.
UniProt O95819: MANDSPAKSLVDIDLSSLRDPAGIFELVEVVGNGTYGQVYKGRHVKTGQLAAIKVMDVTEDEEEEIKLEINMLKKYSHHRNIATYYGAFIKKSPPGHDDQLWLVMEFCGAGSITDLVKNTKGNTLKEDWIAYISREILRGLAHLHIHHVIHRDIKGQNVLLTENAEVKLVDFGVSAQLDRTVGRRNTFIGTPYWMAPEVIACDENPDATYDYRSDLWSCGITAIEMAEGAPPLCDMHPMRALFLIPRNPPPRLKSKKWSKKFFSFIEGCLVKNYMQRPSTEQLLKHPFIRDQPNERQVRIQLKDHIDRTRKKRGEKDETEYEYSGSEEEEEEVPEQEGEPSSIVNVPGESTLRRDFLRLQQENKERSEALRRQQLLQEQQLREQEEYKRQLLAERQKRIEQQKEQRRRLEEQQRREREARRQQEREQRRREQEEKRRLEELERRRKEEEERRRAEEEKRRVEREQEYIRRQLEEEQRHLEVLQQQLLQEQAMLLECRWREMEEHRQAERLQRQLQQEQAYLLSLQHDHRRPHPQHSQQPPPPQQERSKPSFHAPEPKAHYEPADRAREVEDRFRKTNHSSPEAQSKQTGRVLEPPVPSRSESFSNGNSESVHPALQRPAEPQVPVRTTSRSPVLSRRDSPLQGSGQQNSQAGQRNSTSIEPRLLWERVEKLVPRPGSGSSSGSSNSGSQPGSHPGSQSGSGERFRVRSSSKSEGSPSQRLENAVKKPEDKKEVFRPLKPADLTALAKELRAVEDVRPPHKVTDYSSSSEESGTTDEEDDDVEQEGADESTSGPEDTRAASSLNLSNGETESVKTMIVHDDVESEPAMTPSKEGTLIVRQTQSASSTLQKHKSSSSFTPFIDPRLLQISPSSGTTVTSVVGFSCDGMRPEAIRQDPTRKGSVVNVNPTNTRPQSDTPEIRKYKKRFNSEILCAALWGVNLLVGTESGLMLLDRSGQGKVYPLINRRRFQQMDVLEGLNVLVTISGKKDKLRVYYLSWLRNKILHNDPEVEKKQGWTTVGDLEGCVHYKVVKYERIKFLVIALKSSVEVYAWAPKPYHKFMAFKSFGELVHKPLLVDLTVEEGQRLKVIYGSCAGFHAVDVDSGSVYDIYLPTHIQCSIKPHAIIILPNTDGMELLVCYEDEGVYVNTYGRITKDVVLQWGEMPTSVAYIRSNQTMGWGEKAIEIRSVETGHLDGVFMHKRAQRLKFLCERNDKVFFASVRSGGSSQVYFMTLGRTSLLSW
UniProt P97820, residues 2-1233: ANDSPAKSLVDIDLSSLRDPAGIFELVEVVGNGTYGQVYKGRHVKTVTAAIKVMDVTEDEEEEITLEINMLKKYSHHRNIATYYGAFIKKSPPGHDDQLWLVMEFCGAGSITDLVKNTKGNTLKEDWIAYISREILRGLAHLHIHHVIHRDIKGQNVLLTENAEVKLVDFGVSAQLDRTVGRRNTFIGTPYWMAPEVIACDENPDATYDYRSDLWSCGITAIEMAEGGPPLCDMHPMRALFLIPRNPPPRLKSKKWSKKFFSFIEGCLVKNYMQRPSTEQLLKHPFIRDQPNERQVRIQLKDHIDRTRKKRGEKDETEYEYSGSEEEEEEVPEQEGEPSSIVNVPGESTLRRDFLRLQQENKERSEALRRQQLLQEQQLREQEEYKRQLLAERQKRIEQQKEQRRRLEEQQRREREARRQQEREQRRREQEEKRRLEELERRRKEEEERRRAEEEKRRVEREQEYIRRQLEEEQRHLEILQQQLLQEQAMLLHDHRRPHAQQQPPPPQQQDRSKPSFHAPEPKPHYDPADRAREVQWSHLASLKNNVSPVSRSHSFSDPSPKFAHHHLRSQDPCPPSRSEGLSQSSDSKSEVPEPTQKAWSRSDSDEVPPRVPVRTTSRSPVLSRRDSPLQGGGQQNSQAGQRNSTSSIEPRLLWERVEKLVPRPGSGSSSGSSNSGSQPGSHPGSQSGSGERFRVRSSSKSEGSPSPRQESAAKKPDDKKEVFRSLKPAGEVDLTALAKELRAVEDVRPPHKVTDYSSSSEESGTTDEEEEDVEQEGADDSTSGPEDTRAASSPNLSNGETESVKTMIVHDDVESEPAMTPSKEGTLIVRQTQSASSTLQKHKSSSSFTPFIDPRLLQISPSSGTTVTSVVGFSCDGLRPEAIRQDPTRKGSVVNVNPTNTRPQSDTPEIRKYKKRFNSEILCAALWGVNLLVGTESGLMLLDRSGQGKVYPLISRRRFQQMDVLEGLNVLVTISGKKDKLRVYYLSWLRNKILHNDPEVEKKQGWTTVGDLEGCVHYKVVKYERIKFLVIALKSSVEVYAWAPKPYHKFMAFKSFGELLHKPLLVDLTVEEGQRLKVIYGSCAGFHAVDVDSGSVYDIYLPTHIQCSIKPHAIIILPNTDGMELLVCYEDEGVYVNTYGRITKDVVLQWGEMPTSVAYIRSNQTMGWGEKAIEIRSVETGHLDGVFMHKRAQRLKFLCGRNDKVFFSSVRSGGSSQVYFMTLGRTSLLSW

T2: NADE-lexA fusion protein (mouse) (UniProt Q9WTZ9)
T2 sequence: T1 sequence (looked up)

B1: Mus 14-3-3 eta (protein)
chain: GDREQLLQRARLAEQAERYDDMASAMKAVTELNEPLSNEDRNLLSVAYKNVVGARRSSWRVISSIEQKTMADGNEKKLEKVKAYREKIEKELETVCNDVLALLDKFLIKNCNDFQYESKVFYLKMKGDYYRYLAEVASGEKKNSVVEASEAAYKEAFEISKEHMQPTHPIRLGLALNFSVFYYEIQNAPEQACLLAKQAFDDAIAELDTLNEDSYKDSTLIMQLLRDNLTLWTSDQQDEEAGEGN
B2: mus 14-3-3 beta (protein)
chain: MTMDKSELVQKAKLAEQAERYDDMAAAMKAVTEQGHELSNEERNLLSVAYKNVVGARRSSWRVISSIEQKTERNEKKQQMGKEYREKIEAELQDICNDVLELLDKYLILNATQAESKVFYLKMKGDYFRYLSEVASGENKQTTVSNSQQAYQEAFEISKKEMQPTHPIRLGLALNFSVFYYEILNSPEKACSLAKTAFDEAIAELDTLNEESYKDSTLIMQLLRDNLTLWTSENQGDEGDAGEGEN

How the values were obtained:
[1] = target: T1, mNADE with Myc-His tag expressed in 293T cells (mouse); test: co-immunoprecipitation from 293T cells co-transfected with NADE-MycHis and FLAG-human NIK (HGK); anti-FLAG precipitation, anti-NADE Western blot
[2] = target: T2, NADE-lexA fusion protein (mouse); test: yeast two-hybrid, lexA-NADE bait against VP16 mouse embryo cDNA library; His selection, beta-gal assay and mating test

Row | Molecule | binding [1] | binding [2]
1 | full length human NIK (HGK) connected with FLAG (from UniProt O95819 1-1239) (enzyme) | binds | 
2 | NIK (Nek interacting kinase) (from UniProt P97820 2-1233) (enzyme) |  | binds
3 | B1 |  | binds
4 | B2 |  | binds

Source: patent US6939679 (RIKEN, dated 2005)
